Laboratory results as given in the supplement of paper PMC12819154, “High-throughput peptide-centric local stability assay extends protein–ligand identification to membrane proteins, tissues and bacteria” (Nature Structural & Molecular Biology, 2025).
The list shows a part of the results. Most values lie at the level of the controls, where differences are scatter.

The chains behind the UniProt entries cited, without tags or fusion partners. Where a name states a change or a piece, a line headed by the entry shows the natural chain unless it says otherwise.
UniProt Q8WTS6: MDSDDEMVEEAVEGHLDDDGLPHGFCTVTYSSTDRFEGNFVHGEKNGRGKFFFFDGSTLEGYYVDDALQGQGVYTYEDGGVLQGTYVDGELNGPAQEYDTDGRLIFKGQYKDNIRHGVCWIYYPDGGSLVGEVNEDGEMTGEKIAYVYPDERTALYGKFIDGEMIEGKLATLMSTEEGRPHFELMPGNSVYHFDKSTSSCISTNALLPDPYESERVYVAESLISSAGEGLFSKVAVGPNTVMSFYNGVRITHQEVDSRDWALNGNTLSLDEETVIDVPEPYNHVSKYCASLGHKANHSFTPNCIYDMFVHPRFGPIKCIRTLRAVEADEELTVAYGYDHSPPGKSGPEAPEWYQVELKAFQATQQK
UniProt Q8WWN9: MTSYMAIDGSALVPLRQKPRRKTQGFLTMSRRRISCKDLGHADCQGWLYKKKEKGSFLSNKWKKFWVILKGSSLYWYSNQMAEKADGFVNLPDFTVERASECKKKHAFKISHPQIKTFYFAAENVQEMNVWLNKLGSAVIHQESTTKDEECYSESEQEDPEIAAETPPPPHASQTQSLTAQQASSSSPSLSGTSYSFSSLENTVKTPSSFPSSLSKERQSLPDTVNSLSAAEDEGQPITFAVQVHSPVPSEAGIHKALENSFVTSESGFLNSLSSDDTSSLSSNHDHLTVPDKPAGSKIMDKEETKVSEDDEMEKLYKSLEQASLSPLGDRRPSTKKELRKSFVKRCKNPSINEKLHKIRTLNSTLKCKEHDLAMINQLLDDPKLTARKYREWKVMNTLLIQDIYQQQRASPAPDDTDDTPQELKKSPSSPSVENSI
UniProt Q92506: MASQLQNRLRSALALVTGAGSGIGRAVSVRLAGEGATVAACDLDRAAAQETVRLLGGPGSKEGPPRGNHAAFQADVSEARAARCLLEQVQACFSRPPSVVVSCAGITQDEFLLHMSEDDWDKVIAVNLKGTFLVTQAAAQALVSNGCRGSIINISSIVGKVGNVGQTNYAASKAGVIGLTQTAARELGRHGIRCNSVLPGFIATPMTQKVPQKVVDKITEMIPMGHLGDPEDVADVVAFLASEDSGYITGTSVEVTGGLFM
UniProt Q8TC92: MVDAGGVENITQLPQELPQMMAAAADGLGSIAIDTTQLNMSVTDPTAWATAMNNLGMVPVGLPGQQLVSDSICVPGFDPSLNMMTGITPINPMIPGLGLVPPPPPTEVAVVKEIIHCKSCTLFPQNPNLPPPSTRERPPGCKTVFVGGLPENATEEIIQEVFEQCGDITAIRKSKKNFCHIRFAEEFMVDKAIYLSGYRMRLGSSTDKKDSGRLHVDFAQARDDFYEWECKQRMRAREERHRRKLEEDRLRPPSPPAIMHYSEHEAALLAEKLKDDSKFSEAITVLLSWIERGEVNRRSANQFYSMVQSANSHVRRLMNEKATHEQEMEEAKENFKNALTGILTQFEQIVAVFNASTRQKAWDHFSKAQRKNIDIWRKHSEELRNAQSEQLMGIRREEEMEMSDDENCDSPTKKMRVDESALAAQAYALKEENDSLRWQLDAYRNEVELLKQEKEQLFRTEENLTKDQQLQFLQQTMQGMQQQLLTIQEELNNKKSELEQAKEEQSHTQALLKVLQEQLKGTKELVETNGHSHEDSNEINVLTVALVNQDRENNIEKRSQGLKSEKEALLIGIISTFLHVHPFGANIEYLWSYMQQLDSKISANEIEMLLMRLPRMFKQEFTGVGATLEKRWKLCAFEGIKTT
UniProt Q8WX92, whole entry: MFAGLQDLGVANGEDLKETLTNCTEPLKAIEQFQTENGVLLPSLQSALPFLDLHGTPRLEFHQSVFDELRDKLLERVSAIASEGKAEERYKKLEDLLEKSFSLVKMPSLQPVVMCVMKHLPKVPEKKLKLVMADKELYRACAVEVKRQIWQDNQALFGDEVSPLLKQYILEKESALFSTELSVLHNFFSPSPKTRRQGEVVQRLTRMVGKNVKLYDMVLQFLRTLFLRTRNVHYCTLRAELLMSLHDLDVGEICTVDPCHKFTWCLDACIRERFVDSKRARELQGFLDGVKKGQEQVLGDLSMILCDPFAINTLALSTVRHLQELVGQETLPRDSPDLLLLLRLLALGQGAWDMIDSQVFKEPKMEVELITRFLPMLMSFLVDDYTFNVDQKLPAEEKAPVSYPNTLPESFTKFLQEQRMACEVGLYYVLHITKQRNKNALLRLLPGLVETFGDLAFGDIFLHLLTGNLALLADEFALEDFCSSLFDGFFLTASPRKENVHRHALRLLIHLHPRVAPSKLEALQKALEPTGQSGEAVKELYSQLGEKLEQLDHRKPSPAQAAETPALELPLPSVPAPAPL
UniProt Q8WWW8: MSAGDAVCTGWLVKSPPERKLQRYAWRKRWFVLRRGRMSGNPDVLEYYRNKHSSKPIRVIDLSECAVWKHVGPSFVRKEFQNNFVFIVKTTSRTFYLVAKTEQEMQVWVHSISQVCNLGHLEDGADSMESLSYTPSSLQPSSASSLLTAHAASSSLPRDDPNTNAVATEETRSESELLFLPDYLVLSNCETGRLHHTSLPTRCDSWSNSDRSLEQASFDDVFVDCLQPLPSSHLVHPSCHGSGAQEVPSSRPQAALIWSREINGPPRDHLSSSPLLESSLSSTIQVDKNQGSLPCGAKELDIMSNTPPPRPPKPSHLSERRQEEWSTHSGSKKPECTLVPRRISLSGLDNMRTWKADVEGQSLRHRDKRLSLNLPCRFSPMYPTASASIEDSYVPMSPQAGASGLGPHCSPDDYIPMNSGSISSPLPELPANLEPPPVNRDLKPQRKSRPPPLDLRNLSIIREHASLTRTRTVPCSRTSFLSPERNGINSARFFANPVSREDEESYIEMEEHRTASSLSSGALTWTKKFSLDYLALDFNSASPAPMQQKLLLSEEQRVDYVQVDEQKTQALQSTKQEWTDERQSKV
UniProt Q8TCD5: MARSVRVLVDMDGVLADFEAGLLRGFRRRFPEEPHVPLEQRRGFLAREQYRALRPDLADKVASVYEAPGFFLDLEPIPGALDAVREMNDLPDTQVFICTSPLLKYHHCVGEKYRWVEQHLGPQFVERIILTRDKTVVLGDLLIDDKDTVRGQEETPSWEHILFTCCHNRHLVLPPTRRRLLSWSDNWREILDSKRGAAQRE
UniProt Q8TCT9: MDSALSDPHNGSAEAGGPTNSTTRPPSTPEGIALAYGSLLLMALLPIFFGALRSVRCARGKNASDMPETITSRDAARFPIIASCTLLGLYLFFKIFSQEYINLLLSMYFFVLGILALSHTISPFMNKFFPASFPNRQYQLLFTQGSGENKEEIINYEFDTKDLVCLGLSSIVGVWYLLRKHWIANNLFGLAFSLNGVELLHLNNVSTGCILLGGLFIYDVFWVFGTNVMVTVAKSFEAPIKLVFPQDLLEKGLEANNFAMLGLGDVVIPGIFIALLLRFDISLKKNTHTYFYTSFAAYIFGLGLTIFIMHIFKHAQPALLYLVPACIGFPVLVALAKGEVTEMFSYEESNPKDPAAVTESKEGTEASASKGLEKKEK
UniProt Q8WXW3: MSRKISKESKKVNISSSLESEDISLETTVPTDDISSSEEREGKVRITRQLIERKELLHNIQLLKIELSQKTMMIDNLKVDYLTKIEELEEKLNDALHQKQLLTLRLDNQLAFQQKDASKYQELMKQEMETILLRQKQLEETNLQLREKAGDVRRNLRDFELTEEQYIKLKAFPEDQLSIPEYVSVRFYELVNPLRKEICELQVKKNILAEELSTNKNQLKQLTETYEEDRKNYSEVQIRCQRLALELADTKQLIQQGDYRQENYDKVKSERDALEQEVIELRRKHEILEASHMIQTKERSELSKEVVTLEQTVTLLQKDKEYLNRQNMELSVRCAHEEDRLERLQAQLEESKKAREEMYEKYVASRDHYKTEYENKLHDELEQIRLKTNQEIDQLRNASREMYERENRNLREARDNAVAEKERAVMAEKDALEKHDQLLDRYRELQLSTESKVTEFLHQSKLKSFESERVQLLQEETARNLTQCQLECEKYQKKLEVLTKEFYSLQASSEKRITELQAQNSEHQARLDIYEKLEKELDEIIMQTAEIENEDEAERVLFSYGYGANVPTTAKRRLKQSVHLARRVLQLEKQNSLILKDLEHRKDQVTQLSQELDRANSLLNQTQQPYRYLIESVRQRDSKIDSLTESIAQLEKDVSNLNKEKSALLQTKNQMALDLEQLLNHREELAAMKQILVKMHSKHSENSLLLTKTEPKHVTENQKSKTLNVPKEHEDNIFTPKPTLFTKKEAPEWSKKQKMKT
UniProt Q92585: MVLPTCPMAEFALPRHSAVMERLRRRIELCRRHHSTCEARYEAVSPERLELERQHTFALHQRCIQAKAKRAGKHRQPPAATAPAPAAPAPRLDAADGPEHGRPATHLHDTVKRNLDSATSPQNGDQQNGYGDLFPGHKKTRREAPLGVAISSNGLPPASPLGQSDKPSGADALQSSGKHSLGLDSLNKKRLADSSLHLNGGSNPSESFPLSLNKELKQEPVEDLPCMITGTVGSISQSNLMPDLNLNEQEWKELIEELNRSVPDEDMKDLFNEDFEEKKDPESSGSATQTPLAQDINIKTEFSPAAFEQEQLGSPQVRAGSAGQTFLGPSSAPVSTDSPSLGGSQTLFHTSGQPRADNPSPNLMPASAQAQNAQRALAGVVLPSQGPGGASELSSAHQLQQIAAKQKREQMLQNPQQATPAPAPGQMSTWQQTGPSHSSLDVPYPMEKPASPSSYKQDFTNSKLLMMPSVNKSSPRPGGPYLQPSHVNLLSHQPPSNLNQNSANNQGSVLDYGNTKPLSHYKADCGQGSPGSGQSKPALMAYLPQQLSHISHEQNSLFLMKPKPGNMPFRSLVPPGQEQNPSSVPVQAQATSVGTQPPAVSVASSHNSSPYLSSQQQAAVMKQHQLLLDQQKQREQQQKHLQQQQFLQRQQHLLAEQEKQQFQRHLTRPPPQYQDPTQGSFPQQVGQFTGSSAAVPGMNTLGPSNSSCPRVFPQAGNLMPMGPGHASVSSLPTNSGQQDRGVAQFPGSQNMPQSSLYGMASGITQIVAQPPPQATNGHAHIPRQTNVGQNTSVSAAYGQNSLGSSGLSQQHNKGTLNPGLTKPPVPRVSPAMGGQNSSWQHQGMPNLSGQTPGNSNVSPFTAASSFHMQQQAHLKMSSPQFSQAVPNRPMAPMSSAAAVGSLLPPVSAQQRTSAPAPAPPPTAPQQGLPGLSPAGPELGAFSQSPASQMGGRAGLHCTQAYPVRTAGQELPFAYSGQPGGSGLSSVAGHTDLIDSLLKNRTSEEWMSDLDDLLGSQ

Compound: CN[C@@H]1C[C@H]2O[C@@](C)([C@@H]1OC)n1c3ccccc3c3c4c(c5c6ccccc6n2c5c31)C(=O)NC4 [staurosporine]
Assay: log2 fold change of tryptic peptide abundance, ligand vs vehicle (limited proteolysis) (log2 ratio); higher = more trypsin-susceptible (destabilized)
Settings: ligand concentration: 20 uM; sample: K562 cleared lysate; digestion: 4 min, 22 C (HT-PELSA RT4min, Orbitrap Astral)

| Target | log2 fold change |
| --- | --- |
| SETD7 (peptide sequence: AFQATQQK, peptide start residue: 359) (UniProt Q8WTS6) | -0.00457 |
| IPCEF1 (peptide sequence: KTQGFLTMSRR, peptide start residue: 484) (UniProt Q8WWN9) | -0.236 |
| HSD17B8 (peptide sequence: AGVIGLTQTAAR, peptide start residue: 174) (UniProt Q92506) | 0.0929 |
| UniProt Q8TC92 (peptide sequence: AIYLSGYR, peptide start residue: 192) | -0.0214 |
| UniProt Q8WX92 (peptide sequence: LLIHLHPR, peptide start residue: 507) | 0.423 |
| MRPL30 (peptide sequence: VFQASPEDHEK, peptide start residue: 45) (UniProt Q8TCC3) | 0.512 |
| GAB3 (peptide sequence: ELDIMSNTPPPRPPKPSHLSER, peptide start residue: 299) (UniProt Q8WWW8) | 0.253 |
| NT5C (peptide sequence: RRFPEEPHVPLEQR, peptide start residue: 28) (UniProt Q8TCD5) | 0.212 |
| HM13 (peptide sequence: EGTEASASK, peptide start residue: 362) (UniProt Q8TCT9) | 0.396 |
| PIBF1 (peptide sequence: DALEKHDQLLDR, peptide start residue: 430) (UniProt Q8WXW3) | 0.92 |
| MAML1 (peptide sequence: HRQPPAATAPAPAAPAPR, peptide start residue: 74) (UniProt Q92585) | -0.18 |

Two consecutive records already listed, for reference:

| Target | log2 fold change |
| --- | --- |
| HM13 (peptide sequence: EGTEASASK, peptide start residue: 362) (UniProt Q8TCT9) | 0.396 |
| PIBF1 (peptide sequence: DALEKHDQLLDR, peptide start residue: 430) (UniProt Q8WXW3) | 0.92 |
